Data as given in patent publication US10583206B2, “Radioactive probe for detecting hydrogen sulfide” (KYUNGPOOK NATIONAL UNIVERSITY INDUSTRY-ACADEMIC COOPERATION …, priority 2015, dated 2020).

Test: Comparison with common methylene blue method: hydrogen sulfide concentrations in plasma
Parameters: species or system rat

Structure (SMILES)	hydrogen sulfide concentration in plasma (Myocardial infarction model)	hydrogen sulfide concentration in plasma (Normal rat)
CN(C)c1ccc2nc3ccc(=[N+](C)C)cc-3sc2c1 [Methylene blue, reference compound]	40.3	23.8
C1C[N]2CC[N]3CC[N]1[64Cu]23 [Example 20, ^64Cu-labeled TACN]	41.8	23.6
